PubChem BioAssay AID1671195, Yale University, 2021

Assay: 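Genes whose knockdown alters LDL uptake in liver cancer cells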 (primary screen)
System: human Huh7 hepatoma cells
Knock-down reagent: siRNA pool against human genes, 18 nM
Time to read-out: about 2 to 2.5 days of knockdown, then 8 h LDL uptake
Conditions: DiI-labelled LDL at 30 µg/ml for 8 h, in lipoprotein-deficient serum medium
Detection: 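Fluorescent LDL signal imaged in cells, scaled to the plate median, robust z-score for each replicate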
Scale: robust z-score: higher = more LDL uptake after knockdown
Call rule: 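Active when two or more replicates show a robust z-score above 2 or below -2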
The whole screen tested about 22,000 reagents; shown is an unselected part. Of all reagents, about 1,510 (6.9%) are marked active. 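Active includes knockdowns raising or lowering LDL uptake; positive z-scores mean more uptake, negative mean less.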

Against BARX1 (BARX homeobox 1), the entry reads robust z-score, replicate 1 = 0.537; robust z-score, replicate 2 = -0.639; robust z-score, replicate 3 = -0.631; inactive.
With knock-down of CXCR2 (C-X-C motif chemokine receptor 2) the results were robust z-score, replicate 1 = -0.907; robust z-score, replicate 2 = -1.14; robust z-score, replicate 3 = -1.46; inactive.
Against AXIN2 (axin 2), the values are robust z-score, replicate 1 = -1.08; robust z-score, replicate 2 = 1.31; robust z-score, replicate 3 = -0.656; inactive.
MARVELD3 (MARVEL domain containing 3) gave robust z-score, replicate 1 = -1.69; robust z-score, replicate 2 = -2.22; robust z-score, replicate 3 = -1.37; inactive.
Knock-down of PKP2 (plakophilin 2) resulted in: robust z-score, replicate 1 = -1.82; robust z-score, replicate 2 = -2.49; robust z-score, replicate 3 = -1.62; inactive.
Knock-down of PLG (plasminogen) gave: robust z-score, replicate 1 = -1.46; robust z-score, replicate 2 = -0.639; robust z-score, replicate 3 = -1.18; inactive.
Knock-down of SYCP2 (synaptonemal complex protein 2) gave: robust z-score, replicate 1 = 1.01; robust z-score, replicate 2 = 1.13; robust z-score, replicate 3 = 0.0431; inactive.
After knock-down of ANKHD1-EIF4EBP3 (ANKHD1-EIF4EBP3 readthrough), the record shows robust z-score, replicate 1 = -0.83; robust z-score, replicate 2 = 0.885; robust z-score, replicate 3 = 0.909; inactive.
LAT (linker for activation of T cells) scored robust z-score, replicate 1 = 0.0454; robust z-score, replicate 2 = 0.297; robust z-score, replicate 3 = -0.264; inactive.
TRNP1 (TMF1 regulated nuclear protein 1) scored robust z-score, replicate 1 = 0.687; robust z-score, replicate 2 = 0.595; robust z-score, replicate 3 = 0.468; inactive.
GLDN (gliomedin) showed robust z-score, replicate 1 = -0.0846; robust z-score, replicate 2 = -0.383; robust z-score, replicate 3 = 0.0557; inactive.
For LOC339025 (retired record) the deposit lists robust z-score, replicate 1 = 1.43; robust z-score, replicate 2 = 1.18; robust z-score, replicate 3 = 1.25; inactive.
With knock-down of GTSF1L (gametocyte specific factor 1 like), the screen gave robust z-score, replicate 1 = 1.01; robust z-score, replicate 2 = 0.0915; robust z-score, replicate 3 = -0.246; inactive.
LEPR (leptin receptor) showed robust z-score, replicate 1 = -0.988; robust z-score, replicate 2 = -0.742; robust z-score, replicate 3 = -0.586; inactive.
Silencing of KRT1 (keratin 1) resulted in: robust z-score, replicate 1 = 1.26; robust z-score, replicate 2 = 0.498; robust z-score, replicate 3 = 0.276; inactive.
For LOC400099 (retired record) the deposit lists robust z-score, replicate 1 = 0.265; robust z-score, replicate 2 = -0.348; robust z-score, replicate 3 = -0.423; inactive.
With knock-down of AFAP1L2 (actin filament associated protein 1 like 2) the results were robust z-score, replicate 1 = -0.713; robust z-score, replicate 2 = -0.211; robust z-score, replicate 3 = -0.223; inactive.
Against RAMP1 (receptor activity modifying protein 1) the deposit lists robust z-score, replicate 1 = -0.131; robust z-score, replicate 2 = -0.443; robust z-score, replicate 3 = -0.273; inactive.
With knock-down of LINC02817 (long independently transcribed non-coding RNA 2817), the screen gave robust z-score, replicate 1 = -0.807; robust z-score, replicate 2 = -1.01; robust z-score, replicate 3 = -0.984; inactive.
RPS16 (ribosomal protein S16) gave robust z-score, replicate 1 = -0.863; robust z-score, replicate 2 = -0.00621; robust z-score, replicate 3 = 0.274; inactive.
GOLGA6B (golgin A6 family member B) gave robust z-score, replicate 1 = -1.27; robust z-score, replicate 2 = 0.00796; robust z-score, replicate 3 = -1.45; inactive.
CR1 (complement C3b/C4b receptor 1 (Knops blood group)) gave robust z-score, replicate 1 = 0.018; robust z-score, replicate 2 = 0.907; robust z-score, replicate 3 = -1.15; inactive.
SYT14P1 (synaptotagmin 14 pseudogene 1) scored robust z-score, replicate 1 = 0.566; robust z-score, replicate 2 = 0.0724; robust z-score, replicate 3 = 0.775; inactive.
For LOC389341 (retired record) the deposit lists robust z-score, replicate 1 = -0.862; robust z-score, replicate 2 = -0.187; robust z-score, replicate 3 = -0.325; inactive.

Single entries from above.
RPS16 (ribosomal protein S16), activity call: inactive
BARX1 (BARX homeobox 1), robust z-score, replicate 1 → 0.537
Result for PKP2 (plakophilin 2) under “robust z-score, replicate 1”: -1.82
